Measured values as given in patent US11767289B2, “Methods and compositions for pest control” (VMI Foundation, priority 2010, dated 2023).

Assays:
Monomorium minimum males = assay: GC-MS analysis of male ant extracts for tyramides; conditions: M. minimum males trisected into heads, thoraxes, gasters
[1] = system: Megalomyrmex modestus males; assay: GC-MS of methanol extracts of winged males (male tyramides); conditions: collection RMMA030812-01
[2] = system: Megalomyrmex mondabora males; assay: as above; conditions: collection RMMA030729-12
[3] = system: Megalomyrmex wetterei males; assay: as above; conditions: collection RMMA010330-01

| Compound | body part in which the compounds occur (trisection) (Monomorium minimum males) | Tyramides, relative ratios of the compounds [1] | Tyramides, relative ratios of the compounds [2] | Tyramides, relative ratios of the compounds [3] |
| --- | --- | --- | --- | --- |
| CCCC(=O)NCCc1ccc(O)cc1 [Compound 3, N-[2-(4-hydroxyphenyl)ethyl]butanamide] | occurred in the gaster of the ants | 1.5 | 9 | 2 |
| CCCCCC(=O)NCCc1ccc(O)cc1 [Compound 6, N-[2-(4-hydroxyphenyl)ethyl]hexanamide] |  | 1 | 1 | 1 |
| CC(C)CC(=O)C(=O)NCCc1ccc(O)cc1 [Compound 7c, N-[2-(4-Hydroxyphenyl)ethyl]-4-methyl-2-oxopentanamide] | occurred in the gaster of the ants |  |  |  |
